Series [1] has as its target DNA 5-C-methyltransferase (murine, Friend erythroleukemia cells) (Mus musculus) (UniProt P13864). Put plainly: activity assay. The conditions noted are these: 5mC at all CpG C of both strands [strand 1: 5mC at 5,12,18,20; strand 2: 5mC at 4,6,12,19]; fully methylated, no methyl transfer detected; protein in an …; letters built from the parent sequence and the stated change; variant of S+AS (A.A').

Amino acid sequences for entries named in this document (tags omitted). A change or cut given only in a name is not applied to a line headed by its entry.
UniProt P13864: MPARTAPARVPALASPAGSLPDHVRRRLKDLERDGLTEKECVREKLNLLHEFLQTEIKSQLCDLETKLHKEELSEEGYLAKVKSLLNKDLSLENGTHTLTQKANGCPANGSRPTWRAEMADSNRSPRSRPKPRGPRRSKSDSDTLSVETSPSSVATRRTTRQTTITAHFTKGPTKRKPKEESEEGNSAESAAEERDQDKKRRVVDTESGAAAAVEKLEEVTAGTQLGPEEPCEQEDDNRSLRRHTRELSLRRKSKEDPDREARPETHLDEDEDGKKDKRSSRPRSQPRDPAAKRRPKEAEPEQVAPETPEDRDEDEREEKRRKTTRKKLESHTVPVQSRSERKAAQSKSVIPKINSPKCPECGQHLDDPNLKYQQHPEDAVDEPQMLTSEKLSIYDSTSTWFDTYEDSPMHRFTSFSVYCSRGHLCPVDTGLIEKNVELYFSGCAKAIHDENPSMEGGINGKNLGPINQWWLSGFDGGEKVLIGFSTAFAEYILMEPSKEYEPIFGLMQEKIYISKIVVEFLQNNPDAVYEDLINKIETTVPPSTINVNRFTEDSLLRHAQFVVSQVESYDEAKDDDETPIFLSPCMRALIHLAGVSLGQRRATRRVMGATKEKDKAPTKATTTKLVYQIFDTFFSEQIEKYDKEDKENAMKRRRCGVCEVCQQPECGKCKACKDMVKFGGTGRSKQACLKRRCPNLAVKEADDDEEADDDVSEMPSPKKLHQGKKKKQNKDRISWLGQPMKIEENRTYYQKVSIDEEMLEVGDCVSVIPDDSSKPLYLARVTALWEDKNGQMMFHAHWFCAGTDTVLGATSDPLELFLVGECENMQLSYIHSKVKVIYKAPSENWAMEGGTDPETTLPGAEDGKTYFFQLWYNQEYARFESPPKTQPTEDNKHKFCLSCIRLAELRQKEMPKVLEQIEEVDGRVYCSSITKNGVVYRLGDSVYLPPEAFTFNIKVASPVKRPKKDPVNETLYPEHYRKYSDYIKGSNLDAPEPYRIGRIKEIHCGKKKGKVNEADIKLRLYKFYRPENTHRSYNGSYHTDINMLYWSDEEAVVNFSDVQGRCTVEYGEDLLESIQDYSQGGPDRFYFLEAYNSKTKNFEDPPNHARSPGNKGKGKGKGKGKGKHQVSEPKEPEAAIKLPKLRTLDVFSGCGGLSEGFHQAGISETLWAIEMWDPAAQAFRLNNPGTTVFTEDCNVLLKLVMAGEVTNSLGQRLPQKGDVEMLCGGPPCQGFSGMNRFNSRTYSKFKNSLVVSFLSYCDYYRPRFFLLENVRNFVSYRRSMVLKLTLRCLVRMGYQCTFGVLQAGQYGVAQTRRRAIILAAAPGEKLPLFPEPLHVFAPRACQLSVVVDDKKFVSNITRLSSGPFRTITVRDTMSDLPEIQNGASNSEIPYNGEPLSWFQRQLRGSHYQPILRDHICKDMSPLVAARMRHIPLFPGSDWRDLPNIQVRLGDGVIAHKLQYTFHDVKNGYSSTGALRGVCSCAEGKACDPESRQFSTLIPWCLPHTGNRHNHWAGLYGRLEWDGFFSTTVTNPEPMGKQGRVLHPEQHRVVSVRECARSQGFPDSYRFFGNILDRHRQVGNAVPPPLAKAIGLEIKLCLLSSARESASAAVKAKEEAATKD
UniProt P15840: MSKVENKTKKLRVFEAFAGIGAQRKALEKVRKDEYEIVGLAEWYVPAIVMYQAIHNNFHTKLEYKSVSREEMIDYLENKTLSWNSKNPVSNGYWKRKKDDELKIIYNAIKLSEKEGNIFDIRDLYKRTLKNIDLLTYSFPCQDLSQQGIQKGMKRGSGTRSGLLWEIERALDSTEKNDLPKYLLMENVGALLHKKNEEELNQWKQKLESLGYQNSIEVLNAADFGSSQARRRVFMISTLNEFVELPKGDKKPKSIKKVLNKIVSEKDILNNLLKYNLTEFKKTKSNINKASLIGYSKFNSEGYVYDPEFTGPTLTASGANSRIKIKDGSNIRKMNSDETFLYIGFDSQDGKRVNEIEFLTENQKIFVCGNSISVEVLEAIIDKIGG

For series [2] the target is unchanged. Put plainly: inhibition of the protein. The conditions noted are these: 5mC at 7,11,17, 5-fluoro-C at 5,12,18,20 [5mC at 7,11,17, methylation fully inhibited, 5FC in substrate site traps enzyme covalently, protein in an extract, single-stranded DNA, letters built from the parent sequence and the stated change, variant of M2 (AMx).
For series [3], the system named is Hpa II DNA methyltransferase. Put plainly: binding assay. The conditions noted are these: ss ODNs not substrates at 37 C; purified native protein; single-stranded DNA.
Series [4] concerns the target DNA 5-C-methyltransferase (murine, Friend erythroleukemia cells) (Mus musculus) (UniProt P13864). Put plainly: binding assay. The conditions noted are these: no methyl transfer detected, protein in an extract, single-stranded DNA.
For series [5], the target named is M.SssI (bacterial SSS1 CpG methyltransferase) (UniProt P15840). Put plainly: activity assay. The conditions noted are these: 5mC at 5,12,18,20 [5mC at 5,12,18,20]; background 1351; purified native protein; single-stranded DNA; letters built from the parent sequence and the stated change; variant of AS (A); counted as no effect.

For some of these results: Negatives hold for the conditions tested. For some of these results: Results from cells or extracts need not show a direct contact. For some of these results: Construct, isoform or probe ends are uncertain for at least one entry.

As to “ATTGCGCATTCCGGATCCGCGATC (double strand) [AMp.A'Mp]”, the “activity on this sequence” value in series [1] is given as “not active”.

For the sequence “ATTGCGCATTCCGGATCCGCGATC [AMx F5,12,18,20]”, the binding result in series [2] is “binds”.

For ATTGCGCATTCCGGATCCGCGATC [AS (A)], the binding result in series [3] is recorded as “no binding”. For ATTGCGCATTCCGGATCCGCGATC [M1 (AMp)], the binding result in series [4] (5mC at 5,12,18,20 [5mC at 5,12,18,20], letters built from the parent sequence and the stated change, variant of AS (A)) is on record as “no binding”. For the same sequence, in series [5], the activity on this sequence came out at 2340 cpm. Regarding GATCGCGGATCCGGAATGCGCAAT [M3 (SMp)], in series [4] (5mC at 4,6,12,19, variant of S (A')), the binding result is “no binding”.

For GATCGCGGATCCGGAATGCGCAAT [S (A')], the binding result in series [3] is recorded as “no binding”.

The record behind these values is patent US5652105.
